PMC5996148
The list shows a part of the results.

Assays:
Assay in all cases: protein microarray (ProtoArray v5.0), streptavidin-Alexa Fluor 647
Settings in all cases: 3'-biotin; 20 mM Tris (pH 7.5), 5 mM MgCl2, 100 mM KCl, 0.1% Tween-20, A/T-rich and random oligonucleotide blockers; temperature not stated; high values mean tight binding
[1] = system: Spermatogenesis- and oogenesis-specific basic helix-loop-helix-containing protein 2 (human)
[2] = system: Spermatogenesis-associated protein 7 (human)
[3] = system: Spermine synthase (human)
[4] = system: StAR-related lipid transfer protein 4 (human)
[5] = system: StAR-related lipid transfer protein 5 (human)
[6] = system: Stathmin (human)
[7] = system: Sterol-4-alpha-carboxylate 3-dehydrogenase, decarboxylating (human)
[8] = system: Sulfate anion transporter 1 (human)
[9] = system: Sulfotransferase 4A1 (human)
[10] = system: Sulfotransferase family cytosolic 1B member 1 (human)
[11] = system: Suprabasin (human)
[12] = system: Synaptonemal complex protein 2-like (human)
[13] = system: Synaptophysin (human)
[14] = system: Syndecan-1 (human)
[15] = system: Synembryn-A (human)
[16] = system: Syntaxin-10 (human)
[17] = system: Syntaxin-1B (human)
[18] = system: T-complex protein 11-like protein 2 (human)
[19] = system: TAC1 (human)
[20] = system: TAF5-like RNA polymerase II p300/CBP-associated factor-associated factor 65 kDa subunit 5L (human)

Q: What does the source list for “GGGAGGCTGAGGCAGG [G4-1 biotinylated (PQS2)]”?
A: binding signal [1]: -0.31 z-score; binding signal [2]: -0.373 z-score; binding signal [3]: -0.345 z-score; binding signal [4]: -0.338 z-score; binding signal [5]: -0.322 z-score; binding signal [6]: -0.344 z-score; binding signal [7]: -0.328 z-score; binding signal [8]: -0.275 z-score; binding signal [9]: -0.327 z-score; binding signal [10]: -0.338 z-score; binding signal [11]: -0.317 z-score; binding signal [12]: -0.294 z-score; binding signal [13]: -0.318 z-score; binding signal [14]: -0.334 z-score; binding signal [15]: -0.36 z-score; binding signal [16]: -0.304 z-score; binding signal [17]: -0.34 z-score; binding signal [18]: -0.365 z-score; binding signal [19]: -0.267 z-score; binding signal [20]: -0.314 z-score
